“And” between values parts separate entries of the source, which are not always exact repeats. Equal entries are not always repeated. This is one part of the list.
Legend:
[1] = stimulators of nuclear beta-catenin in C2C12, primary screen, imaging, WNT3A-conditioned medium, mouse C2C12, NPC library (AID 1117326); details: at 2 µM, stronger effect = higher value
[2] = differential killing of epithelial or mesenchymal cells, primary screen, imaging, PC-3E GFP, TEM4-18 mCherry, co-culture (AID 1345086); details: imaging cell counts, at 1 µM;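 also: cells exposed to compound for 72 h before imaging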
[3] = liver-stage malaria parasite growth inhibition, primary screen, cell-based, HepG2, luciferase luminescence, HepG2 viability (AID 624349);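 also: 100% = mean of DMSO negative control wells on the same plate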; details: P. berghei liver stage in HepG2, luciferase luminescence; measured here: HepG2 viability without parasites; concentration not given here
[4] = measured here: epithelial PC-3E GFP cell survival
[5] = measured here: mesenchymal TEM4-18 mCherry cell survival

| Compound | nuclear beta-catenin stimulation [1] [%] | normalised cell number [2, 4] | normalised cell number [2, 5] | viability [3] |
| --- | --- | --- | --- | --- |
| O=[N+]([O-])OCC(CO[N+](=O)[O-])(CO[N+](=O)[O-])CO[N+](=O)[O-] | 1.5 | – | – | – |
| CN(C)CCS | – | 0.94 | 0.99 | – |
| CCOP(=O)(CC)Oc1ccc([N+](=O)[O-])cc1 (stereo not given) | 1.6 | – | – | – |
| CN(C(=O)Cc1ccc(Cl)c(Cl)c1)[C@H]1CC[C@@]2(CCCO2)C[C@@H]1N1CCCC1 | 0.9 | – | – | – |
| OCCSCCO | 4.8 | 0.99 | 1 | 89.5% |
| C/C1=C2N=C(/C=C3N=C(/C(C)=C4\[N-][C@@](C)([C@@H]5N=C1[C@](C)(CCC(=O)NC[C@@H](C)OP(=O)([O-])O[C@H]1[C@@H](O)[C@@H](n6cnc7cc(C)c(C)cc76)O[C@@H]1CO)[C@H]5CC(N)=O)[C@@](C)(CC(N)=O)[C@@H]4CCC(N)=O)[C@@](C)(CC(N)=O)[C@@H]\3CCC(N)=O)C(C)(C)[C@@H]/2CCC(N)=O.[C-]#N.[Co+3] | 2.8 | – | – | 92% and 72.6% |
| O=P(O)(O)F | – | 1.07 | 1.01 | – |
| CN(C(=O)Cc1ccccc1)[C@H]1CC[C@@]2(CCCO2)C[C@@H]1N1CCCC1 | 3.3 | – | – | – |
| NC(=O)Nc1ccc([As](=O)(O)O)cc1 | -0.7 | 1.08 | 1.14 | 102% and 78.4% |
| O=C(O[C@H]1CN2CCC1CC2)C1NCc2ccccc2[C@@H]1c1ccccc1 (stereo not given in full) | – | 1.07 | 1.17 | – |

From PubChem BioAssay
